## Cleaved PARP in drug-treated melanoma cells

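Human melanoma cells were exposed to a pair of drugs for 72 h in 1,536-well plates and read by automated microscopy after fixing and staining. Each value is the cleaved-PARP-positive fraction of nuclei relative to DMSO-treated wells, in %, so that 100 equals the control and higher values mean more apoptosis. Concentrations were fixed for each drug; these are the higher of two levels. These are primary screening values without error estimates. The marker varies much from line to line, for technical or biological reasons.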
Only some of the drugs and lines screened are listed, without regard to their results.
A dash means that no value is listed here.

Every entry is a combination with XAV939 at 10 µM: Oc1nc(-c2ccc(C(F)(F)F)cc2)nc2c1CSCC2

Drug key:
dorsomorphin: c1cc(-c2cnn3cc(-c4ccc(OCCN5CCCCC5)cc4)cnc23)ccn1 at 2 µM
LFM-A13: C/C(O)=C(\C#N)C(=O)Nc1cc(Br)ccc1Br at 10 µM
PF-04217903: OCCn1cc(-c2cnc3nnn(Cc4ccc5ncccc5c4)c3n2)cn1 at 5 µM
AS-252424: O=C1NC(=O)/C(=C/c2ccc(-c3ccc(F)cc3O)o2)S1 at 5 µM
sunitinib: CCN(CC)CCNC(=O)c1c(C)[nH]c(/C=C2\C(=O)Nc3ccc(F)cc32)c1C at 2 µM
fingolimod: CCCCCCCCc1ccc(CCC(N)(CO)CO)cc1 at 10 µM
ENMD-2076: Cc1cc(Nc2cc(N3CCN(C)CC3)nc(/C=C/c3ccccc3)n2)n[nH]1 at 0.2 µM
dovitinib: CN1CCN(c2ccc3nc(-c4c(N)c5c(F)cccc5[nH]c4=O)[nH]c3c2)CC1 at 0.5 µM
darinaparsin: C[As](C)SC[C@H](NC(=O)CC[C@H](N)C(=O)O)C(=O)NCC(=O)O at 2 µM
vismodegib: CS(=O)(=O)c1ccc(C(=O)Nc2ccc(Cl)c(-c3ccccn3)c2)c(Cl)c1 at 5 µM
ruxolitinib: N#CC[C@H](C1CCCC1)n1cc(-c2ncnc3[nH]ccc23)cn1 at 5 µM
BI-D1870: CC(C)CCN1c2nc(Nc3cc(F)c(O)c(F)c3)ncc2N(C)C(=O)C1C (centres undefined) at 1 µM
SNS-032: CC(C)(C)c1cnc(CSc2cnc(NC(=O)C3CCNCC3)s2)o1 at 0.05 µM
CX-4945: O=C(O)c1ccc2c(c1)nc(Nc1cccc(Cl)c1)c1ccncc12 at 2 µM
temozolomide: Cn1nnc2c(C(N)=O)ncn2c1=O at 10 µM
BI-78D3: O=c1[nH]nc(Sc2ncc([N+](=O)[O-])s2)n1-c1ccc2c(c1)OCCO2 at 1 µM

Partner,LOX IMVI,A101D,A375,COLO 829,WM3526,RVH-421,IPC-298,A2058,LB2518-MEL,WM451Lu
sunitinib,166,53.6,58.7,100,275,72.8,112,264,41.7,518
SNS-032,205,119,117,33.3,100,114,98.5,154,99.4,197
CX-4945,84.7,150,141,147,152,119,214,137,50.7,40.0
darinaparsin,126,108,79.9,69.1,105,175,63.6,144,78.6,27.9
fingolimod,105,391,107,47.3,168,78.1,105,101,71.0,394
PF-04217903,537,73.2,33.5,37.6,91.4,122,63.2,70.6,58.2,60.1
dorsomorphin,72.5,175,76.1,113,85.2,275,51.3,344,126,106
vismodegib,26.5,106,52.0,50.4,59.9,118,94.7,86.2,582,162
BI-D1870,225,60.4,39.1,44.5,91.1,109,60.1,185,83.3,364
BI-78D3,102,128,126,80.9,82.1,56.1,59.8,181,132,191
LFM-A13,69.7,201,29.0,34.1,41.6,55.6,42.6,63.6,57.4,111
ruxolitinib,99.3,261,79.7,131,89.7,144,87.2,148,86.6,90.1
ENMD-2076,59.5,67.1,82.5,50.9,68.6,111,86.1,138,389,145
temozolomide,85.5,159,84.0,58.4,109,112,40.0,574,-,66.4
AS-252424,63.7,156,73.7,38.7,111,241,93.4,133,160,78.2
dovitinib,149,177,186,117,87.4,69.4,33.6,466,261,76.1

2 of the entries, repeated:

Partner,LOX IMVI,A101D,A375,COLO 829,WM3526,RVH-421,IPC-298,A2058,LB2518-MEL,WM451Lu
vismodegib,26.5,106,52.0,50.4,59.9,118,94.7,86.2,582,162
LFM-A13,69.7,201,29.0,34.1,41.6,55.6,42.6,63.6,57.4,111

From a melanoma drug combination screen (doi:10.1371/journal.pone.0140310); values rounded.